In US20020151491A1, “Composition and method for treating the over-production of mucin in diseases such as otitis media using an inhibitor of MUC5AC” (priority 2000, published 2002):
For at least one compound, name, drawing or mass did not settle the structure.

System: p38 MAP kinase phosphorylation
Experiment: Western blot of NTHi-induced p38 MAP kinase phosphorylation in HM3 cells
Assay type: cell-based, human
Settings: pretreatment or overexpression, then NTHi SCF

SMILES: COC[C@H]1OC(=O)c2coc3c2[C@@]1(C)C1=C(C3=O)[C@@H]2CCC(=O)[C@@]2(C)C[C@H]1OC(C)=O [wortmannin]
- effect on NTHi-induced p38 MAP kinase phosphorylation: greatly enhanced phosphorylation of p38
